Where “and” joins values, the source holds several entries; their conditions need not be identical. Equal values may be shown once.
Key:
Type in all cases: in vivo
[1] = tested on: control mice; assay: Radiant tail flick antinociception, control (not pretreated) mice; conditions: for i.c.v./i.t. ratio: controls
Experimental: (§1) Compounds were dissolved in 10% DMSO and then diluted to less than 1% DMSO in the test solutions. […] Compounds were administered in a 5-μl volume in conscious mice, either i.c.v. (Haley T J & McCormick W G, Br J Pharmacol Chemother, 1957, 12(1), 12-15) or i.t. (Hylden J L K & Wilcox G L, Eur. J. Pharmacol., 1980, 67(2-3), 313-316). Peak times were determined by comparing the percent maximal possible effect (% MPE) at 5, 10, 20 and 60 minutes after injection.
(§2) The tail flick assay is used first to test for antinociception as described by D'Amour and Smith (D'AMOUR FE & SMITH DL (1941) J. Pharmacol. Exp. Ther. 72(1):74-79) and modified by Dewey et al. (Dewey W L, Harris L S, Howes J F, & Nuite JA (1970) J. Pharmacol. Exp. Ther. 175(2):435-442). For the measurement of the tail-flick latency, mice are wrapped in a light cloth and held gently in one hand with the tail positioned in the apparatus (Tail Flick Analgesia Meter, Columbus Instruments, Columbus, Ohio) for radiant heat stimulus. The tail-flick response is elicited by applying radiant heat to the dorsal side of the tail. The intensity of the heat is set so that the mouse flicks its tail within 2 to 3 seconds. The test latency is measured before drug treatment (control) and again after the drug treatment (test) at the peak time of the compound; a 10 second maximum cut-off time is used to prevent damage to the tail. Antinociception is quantified according to the Harris L S & Pierson A K, J. Pharmacol. Exp. Ther., 1964, 143(2):141-148, as the percent maximal possible effect (% MPE), which is calculated as: % MPE=(Test−Control/10−Control)×100.
(§3) At least three groups of four to ten mice are used for each dose response curve. ED50 values with 95% confidence intervals (C.I.) are computed with GraphPad Prism 4 by using nonlinear regression methods.

[2] = tested on: LPS pretreated mice; assay: Radiant tail flick antinociception, LPS pretreated mice; conditions: for Relative potency: mouse, in vivo
Experimental: as §1
The first group mice were pretreated with lipopolysaccaride (LPS, 1 mg/kg, i.p. from Escherichia coli 0111:B4; Sigma-Aldrich, St. Louis, Mo.) for 24 hours before testing for antinociception of compounds 2-6 (Seo Y-J, et al., Pharmacol., Biochem. Behav., 2008, 91, 121-127). This group was compared to a group without pretreatment.
as §2, §3

[3] = tested on: C3H mice with bone cancer; assay: von Frey mechanical hyperalgesia, bone cancer (fibrosarcoma) mice; conditions: i.t.
Experimental: The mouse hind paw model of bone cancer was the third model of pain (Wacnik P W, et al., Pain Research & Management, 2000, 16, 615-637; and Wacnik P W, et al., J Neurosci, 2001, 21(23), 9355-9366). Cell Culture: National Collection of Type Cultures (NCTC) clone 2472 fibrosarcoma cells, originally derived from a connective tissue tumor in a C3H mouse, were obtained from the American Type Cell Culture Collection (Rockville, Md.). Cells were grown and maintained in accordance with standard cell culturing techniques. […]
Cells were prepared for implantation by first pouring off the culture medium and washing with phosphate-buffered saline (PBS). […] Fibrosarcoma cells were re-suspended in a known amount of PBS for counting, quantified on a hemacytometer, pelleted and re-suspended in PBS. […]
C3H mice were was placed under a clean glass cup on a wire mesh grid and allowed to acclimate for thirty minutes. […] Starting with the right hind paw, the number of positive responses out of a total of 10 applications was recorded followed by the left hind paw. […] Subsequent measurements were taken at various time points after intrathecal (i.t.) injection of test compounds on days 3, 7, 10, 14, 17, and 21. % MPE was calculated ((Time-point value−Day# baseline)/(Day 0 baseline−day# baseline))*100 (Smeester B A, Al-Gizawiy M, & Beitz A J (2012) Evidence-Based Complementary and Alternative Medicine 2012:16). […]

SMILES | i.c.v./i.t. ratio [1] | Relative potency [2] | i.c.v./i.t. ratio ([2]; LPS pretreated) | other results
COc1cccc(C#Cc2cccc(C)n2)c1 [Compound 2, 2-((3-methoxyphenyl)ethynyl)-6-methylpyridine, reference compound] | 1 | – | – | –
Cc1cccc(C#Cc2cccc(OCCNC(=O)COCC(=O)N[C@H]3CC[C@@]4(O)C5Cc6ccc(O)c7c6[C@@]4(CCN5C)[C@H]3O7)c2)n1 [Compound 3, N-((4aS,7S,7aR,12bS)-4a,9-dihydroxy-3-methyl-2,3,4,4a,5,6,7,7a-octahydro-1H-4,12-methanobenzofuro[3,2-e]isoquinolin-7-yl)-2-(2-((2-(3-((6-methylpyridin-2-yl)ethynyl)phenoxy)ethyl)amino)-2-oxoethoxy)acetamide] | 4.62 | 41 | – | more potent than the mixture (5+6) ([3]; PID 21): about 62,000
Cc1cccc(C#Cc2cccc(OCCNC(=O)COCC(=O)NCCNC(=O)COCC(=O)N[C@H]3CC[C@@]4(O)C5Cc6ccc(O)c7c6[C@@]4(CCN5C)[C@H]3O7)c2)n1 [Compound 4a, N-((4aS,7S,7aR,12bS)-4a,9-dihydroxy-3-methyl-2,3,4,4a,5,6,7,7a-octahydro-1H-4,12-methanobenzofuro[3,2-e]isoquinolin-7-yl)-2-((14-(3-((6-methylpyridin-2-yl)ethynyl)phenoxy)-2,7,11-trioxo-9-oxa-3,6,12-triazatetradecyl)oxy)acetamide] | 3.48 | 16 | 3.93 | –
Cc1cccc(C#Cc2cccc(OCCNC(=O)COCC(=O)NCCCNC(=O)COCC(=O)N[C@H]3CC[C@@]4(O)C5Cc6ccc(O)c7c6[C@@]4(CCN5C)[C@H]3O7)c2)n1 [Compound 4b, N-((4aS,7S,7aR,12bS)-4a,9-dihydroxy-3-methyl-2,3,4,4a,5,6,7,7a-octahydro-1H-4,12-methanobenzofuro[3,2-e]isoquinolin-7-yl)-2-((1-(3-((6-methylpyridin-2-yl)ethynyl)phenoxy)-4,8,14-trioxo-6-oxa-3,9,13-triazapentadecan-15-yl)oxy)acetamide] | 3.14 | 33 | 6.38 | –
Cc1cccc(C#Cc2cccc(OCCNC(=O)COCC(=O)NCCCCCNC(=O)COCC(=O)N[C@H]3CC[C@@]4(O)C5Cc6ccc(O)c7c6[C@@]4(CCN5C)[C@H]3O7)c2)n1 [Compound 4c, N-((4aS,7S,7aR,12bS)-4a,9-dihydroxy-3-methyl-2,3,4,4a,5,6,7,7a-octahydro-1H-4,12-methanobenzofuro[3,2-e]isoquinolin-7-yl)-2-((1-(3-((6-methylpyridin-2-yl)ethynyl)phenoxy)-4,8,16-trioxo-6-oxa-3,9,15-triazaheptadecan-17-yl)oxy)acetamide] | – | – | > 40,000 and 42,457 | more potent than a mixture of monovalent ligands ([3]; all time points evaluated): about 250,000 fold
Cc1cccc(C#Cc2cccc(OCCNC(=O)COCC(=O)NCCCCCCCNC(=O)COCC(=O)N[C@H]3CC[C@@]4(O)C5Cc6ccc(O)c7c6[C@@]4(CCN5C)[C@H]3O7)c2)n1 [Compound 4d, N-((4aS,7S,7aR,12bS)-4a,9-dihydroxy-3-methyl-2,3,4,4a,5,6,7,7a-octahydro-1H-4,12-methanobenzofuro[3,2-e]isoquinolin-7-yl)-2-((1-(3-((6-methylpyridin-2-yl)ethynyl)phenoxy)-4,8,18-trioxo-6-oxa-3,9,17-triazanonadecan-19-yl)oxy)acetamide] | – | 83 | 1,648 | less potent (i.c.v.) ([1]; control mice, i.c.v.): 10 fold; lower potency than compound 4c ([2]; LPS pretreated, i.t.): 25 fold
CNC(=O)COCC(=O)NCCCNC(=O)COCC(=O)NCCOc1cccc(C#Cc2cccc(C)n2)c1 [Compound 6, N-methyl-2-(1-(3-((6-methylpyridin-2-yl)ethynyl)phenoxy)-4,8,14-trioxo-6-oxa-3,9,13-triazapentadecan-15-yloxy)acetamide] | – | – | – | less potent than compounds 4a-4c ([1]; control mice, i.t.): about 70 fold

Source: patent US9981043B2, “Analgesic conjugates” (priority 2013, dated 2018)
